Data reported in the supplement of paper PMC11006884.
The list shows a part of the results, in another mix than the full data.

Sequences of proteins named here, by UniProt entry; tags and fusion partners are left off. A change or cut given only in a name is not applied to a line headed by its entry.
UniProt Q8WUM4: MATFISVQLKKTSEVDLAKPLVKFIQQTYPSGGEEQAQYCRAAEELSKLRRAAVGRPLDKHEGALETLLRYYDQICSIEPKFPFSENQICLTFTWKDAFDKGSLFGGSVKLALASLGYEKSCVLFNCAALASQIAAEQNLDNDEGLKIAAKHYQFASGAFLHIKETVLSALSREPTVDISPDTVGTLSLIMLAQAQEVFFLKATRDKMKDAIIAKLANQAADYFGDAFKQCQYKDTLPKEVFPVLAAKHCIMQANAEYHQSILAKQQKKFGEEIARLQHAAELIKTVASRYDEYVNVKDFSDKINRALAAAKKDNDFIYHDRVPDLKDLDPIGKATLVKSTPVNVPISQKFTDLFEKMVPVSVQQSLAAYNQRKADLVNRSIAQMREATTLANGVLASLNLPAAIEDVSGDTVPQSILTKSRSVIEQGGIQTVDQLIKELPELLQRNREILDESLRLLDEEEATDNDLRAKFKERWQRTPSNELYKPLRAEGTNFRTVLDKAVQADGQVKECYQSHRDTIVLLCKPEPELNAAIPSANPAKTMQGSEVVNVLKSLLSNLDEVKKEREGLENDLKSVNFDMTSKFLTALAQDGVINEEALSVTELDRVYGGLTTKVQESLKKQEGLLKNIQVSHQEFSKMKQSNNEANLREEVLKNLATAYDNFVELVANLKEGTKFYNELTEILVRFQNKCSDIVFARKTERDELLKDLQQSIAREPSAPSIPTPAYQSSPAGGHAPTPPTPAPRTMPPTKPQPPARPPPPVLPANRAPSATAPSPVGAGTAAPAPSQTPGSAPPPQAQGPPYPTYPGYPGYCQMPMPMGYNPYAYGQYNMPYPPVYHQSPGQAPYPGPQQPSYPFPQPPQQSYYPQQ
UniProt Q8NBU5: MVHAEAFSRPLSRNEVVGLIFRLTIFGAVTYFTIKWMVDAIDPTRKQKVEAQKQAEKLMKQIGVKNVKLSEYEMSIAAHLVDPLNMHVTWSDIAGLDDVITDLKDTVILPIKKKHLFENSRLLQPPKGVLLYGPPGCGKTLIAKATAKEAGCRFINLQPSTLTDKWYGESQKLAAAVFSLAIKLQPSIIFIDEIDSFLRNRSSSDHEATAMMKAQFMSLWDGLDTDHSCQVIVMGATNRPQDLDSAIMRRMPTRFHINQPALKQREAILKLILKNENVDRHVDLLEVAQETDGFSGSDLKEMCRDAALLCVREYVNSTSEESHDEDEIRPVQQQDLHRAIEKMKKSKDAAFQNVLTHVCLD
UniProt Q8N3C0, whole entry, looked up: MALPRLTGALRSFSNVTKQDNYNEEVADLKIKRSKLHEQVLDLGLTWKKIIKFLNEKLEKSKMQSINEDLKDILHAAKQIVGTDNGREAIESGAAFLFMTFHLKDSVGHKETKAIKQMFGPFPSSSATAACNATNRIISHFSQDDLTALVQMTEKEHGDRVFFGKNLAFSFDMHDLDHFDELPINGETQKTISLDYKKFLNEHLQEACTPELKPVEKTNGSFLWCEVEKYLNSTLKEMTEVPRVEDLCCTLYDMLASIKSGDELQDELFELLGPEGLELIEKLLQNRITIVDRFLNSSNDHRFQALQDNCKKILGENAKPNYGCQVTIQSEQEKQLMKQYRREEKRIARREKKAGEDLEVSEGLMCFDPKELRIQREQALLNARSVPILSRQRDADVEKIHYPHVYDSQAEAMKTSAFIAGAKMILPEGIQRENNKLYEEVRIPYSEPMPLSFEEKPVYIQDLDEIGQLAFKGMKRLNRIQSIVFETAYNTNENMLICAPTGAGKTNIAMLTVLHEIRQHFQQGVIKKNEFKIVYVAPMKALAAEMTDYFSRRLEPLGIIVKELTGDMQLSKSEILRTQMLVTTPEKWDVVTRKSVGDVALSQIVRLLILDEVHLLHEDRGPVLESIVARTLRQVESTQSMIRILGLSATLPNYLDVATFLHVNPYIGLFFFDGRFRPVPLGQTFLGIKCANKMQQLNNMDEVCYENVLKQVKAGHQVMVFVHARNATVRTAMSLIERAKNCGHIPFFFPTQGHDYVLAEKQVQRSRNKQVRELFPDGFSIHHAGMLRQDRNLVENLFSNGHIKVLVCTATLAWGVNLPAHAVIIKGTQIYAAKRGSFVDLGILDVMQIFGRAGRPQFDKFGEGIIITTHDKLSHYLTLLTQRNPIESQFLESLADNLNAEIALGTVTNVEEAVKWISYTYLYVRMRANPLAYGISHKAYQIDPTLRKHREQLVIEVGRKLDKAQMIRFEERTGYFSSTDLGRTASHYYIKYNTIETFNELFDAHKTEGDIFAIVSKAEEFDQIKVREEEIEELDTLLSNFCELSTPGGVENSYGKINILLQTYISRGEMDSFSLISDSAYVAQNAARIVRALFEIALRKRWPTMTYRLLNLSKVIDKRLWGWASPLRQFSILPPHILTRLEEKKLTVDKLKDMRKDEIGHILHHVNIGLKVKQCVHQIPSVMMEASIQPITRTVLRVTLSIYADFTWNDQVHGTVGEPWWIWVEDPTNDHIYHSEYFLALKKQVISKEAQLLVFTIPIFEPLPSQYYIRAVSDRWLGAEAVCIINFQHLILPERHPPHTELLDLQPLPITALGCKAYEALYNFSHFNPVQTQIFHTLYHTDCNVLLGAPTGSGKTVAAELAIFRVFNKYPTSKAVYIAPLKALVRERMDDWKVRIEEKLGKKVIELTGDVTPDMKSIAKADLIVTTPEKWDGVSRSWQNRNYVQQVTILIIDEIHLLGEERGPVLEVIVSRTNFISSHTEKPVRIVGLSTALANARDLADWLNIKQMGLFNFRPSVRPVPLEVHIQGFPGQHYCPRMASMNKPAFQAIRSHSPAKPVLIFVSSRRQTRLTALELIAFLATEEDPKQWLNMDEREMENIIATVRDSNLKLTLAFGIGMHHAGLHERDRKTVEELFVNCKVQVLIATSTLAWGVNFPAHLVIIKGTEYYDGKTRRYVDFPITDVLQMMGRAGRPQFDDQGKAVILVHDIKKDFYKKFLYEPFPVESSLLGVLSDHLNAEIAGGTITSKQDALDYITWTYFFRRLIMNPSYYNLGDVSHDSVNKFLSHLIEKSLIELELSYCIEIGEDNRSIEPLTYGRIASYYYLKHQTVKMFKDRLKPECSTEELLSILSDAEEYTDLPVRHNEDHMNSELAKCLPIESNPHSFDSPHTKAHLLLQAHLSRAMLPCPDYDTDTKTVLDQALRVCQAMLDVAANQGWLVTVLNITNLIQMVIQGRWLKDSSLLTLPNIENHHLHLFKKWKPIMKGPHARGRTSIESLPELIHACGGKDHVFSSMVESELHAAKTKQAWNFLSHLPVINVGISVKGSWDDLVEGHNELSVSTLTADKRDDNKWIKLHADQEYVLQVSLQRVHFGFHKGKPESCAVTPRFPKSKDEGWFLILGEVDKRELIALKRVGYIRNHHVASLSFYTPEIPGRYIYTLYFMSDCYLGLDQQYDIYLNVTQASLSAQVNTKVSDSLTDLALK
UniProt Q8TEX9: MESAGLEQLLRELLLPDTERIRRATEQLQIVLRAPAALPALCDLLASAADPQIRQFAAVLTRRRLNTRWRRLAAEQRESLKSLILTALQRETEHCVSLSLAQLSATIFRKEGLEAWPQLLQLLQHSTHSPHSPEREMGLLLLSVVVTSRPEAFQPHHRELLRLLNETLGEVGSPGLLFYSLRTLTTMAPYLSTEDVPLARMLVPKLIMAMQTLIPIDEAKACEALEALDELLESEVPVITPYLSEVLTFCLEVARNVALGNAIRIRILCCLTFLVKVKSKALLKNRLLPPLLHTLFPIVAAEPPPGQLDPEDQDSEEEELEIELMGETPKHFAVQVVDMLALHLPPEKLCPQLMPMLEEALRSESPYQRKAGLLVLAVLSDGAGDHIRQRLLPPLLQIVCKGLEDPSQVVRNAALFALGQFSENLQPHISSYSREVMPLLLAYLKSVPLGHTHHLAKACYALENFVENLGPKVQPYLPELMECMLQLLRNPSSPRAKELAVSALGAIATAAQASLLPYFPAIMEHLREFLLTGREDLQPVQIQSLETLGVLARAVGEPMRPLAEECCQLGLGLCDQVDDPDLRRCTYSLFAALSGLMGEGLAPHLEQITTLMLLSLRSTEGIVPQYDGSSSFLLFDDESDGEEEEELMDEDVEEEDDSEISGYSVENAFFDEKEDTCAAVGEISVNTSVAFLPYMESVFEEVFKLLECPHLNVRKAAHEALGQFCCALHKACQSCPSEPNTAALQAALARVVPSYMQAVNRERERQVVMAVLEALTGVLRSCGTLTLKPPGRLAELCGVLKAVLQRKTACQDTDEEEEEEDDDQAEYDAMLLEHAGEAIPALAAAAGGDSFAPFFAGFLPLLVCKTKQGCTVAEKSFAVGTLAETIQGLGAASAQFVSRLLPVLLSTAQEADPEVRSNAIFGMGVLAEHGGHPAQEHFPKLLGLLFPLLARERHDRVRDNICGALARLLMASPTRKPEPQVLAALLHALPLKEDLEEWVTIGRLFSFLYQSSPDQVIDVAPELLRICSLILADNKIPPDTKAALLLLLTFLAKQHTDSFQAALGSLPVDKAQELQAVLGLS
UniProt Q8N1G4: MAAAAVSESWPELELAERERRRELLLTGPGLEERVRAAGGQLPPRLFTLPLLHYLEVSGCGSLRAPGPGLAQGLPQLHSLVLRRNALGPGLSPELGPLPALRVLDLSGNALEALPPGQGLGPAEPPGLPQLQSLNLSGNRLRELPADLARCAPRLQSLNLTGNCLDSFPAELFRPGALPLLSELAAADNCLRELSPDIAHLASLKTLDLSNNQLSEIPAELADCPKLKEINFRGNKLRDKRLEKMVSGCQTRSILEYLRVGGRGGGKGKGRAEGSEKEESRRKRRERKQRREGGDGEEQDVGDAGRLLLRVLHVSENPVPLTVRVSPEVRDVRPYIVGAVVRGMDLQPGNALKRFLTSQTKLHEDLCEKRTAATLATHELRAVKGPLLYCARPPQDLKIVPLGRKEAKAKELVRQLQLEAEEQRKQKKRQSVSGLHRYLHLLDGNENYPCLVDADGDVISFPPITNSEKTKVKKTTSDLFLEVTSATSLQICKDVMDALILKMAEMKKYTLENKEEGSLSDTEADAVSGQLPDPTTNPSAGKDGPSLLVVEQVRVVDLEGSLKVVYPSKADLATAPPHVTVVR
UniProt Q8WUM0: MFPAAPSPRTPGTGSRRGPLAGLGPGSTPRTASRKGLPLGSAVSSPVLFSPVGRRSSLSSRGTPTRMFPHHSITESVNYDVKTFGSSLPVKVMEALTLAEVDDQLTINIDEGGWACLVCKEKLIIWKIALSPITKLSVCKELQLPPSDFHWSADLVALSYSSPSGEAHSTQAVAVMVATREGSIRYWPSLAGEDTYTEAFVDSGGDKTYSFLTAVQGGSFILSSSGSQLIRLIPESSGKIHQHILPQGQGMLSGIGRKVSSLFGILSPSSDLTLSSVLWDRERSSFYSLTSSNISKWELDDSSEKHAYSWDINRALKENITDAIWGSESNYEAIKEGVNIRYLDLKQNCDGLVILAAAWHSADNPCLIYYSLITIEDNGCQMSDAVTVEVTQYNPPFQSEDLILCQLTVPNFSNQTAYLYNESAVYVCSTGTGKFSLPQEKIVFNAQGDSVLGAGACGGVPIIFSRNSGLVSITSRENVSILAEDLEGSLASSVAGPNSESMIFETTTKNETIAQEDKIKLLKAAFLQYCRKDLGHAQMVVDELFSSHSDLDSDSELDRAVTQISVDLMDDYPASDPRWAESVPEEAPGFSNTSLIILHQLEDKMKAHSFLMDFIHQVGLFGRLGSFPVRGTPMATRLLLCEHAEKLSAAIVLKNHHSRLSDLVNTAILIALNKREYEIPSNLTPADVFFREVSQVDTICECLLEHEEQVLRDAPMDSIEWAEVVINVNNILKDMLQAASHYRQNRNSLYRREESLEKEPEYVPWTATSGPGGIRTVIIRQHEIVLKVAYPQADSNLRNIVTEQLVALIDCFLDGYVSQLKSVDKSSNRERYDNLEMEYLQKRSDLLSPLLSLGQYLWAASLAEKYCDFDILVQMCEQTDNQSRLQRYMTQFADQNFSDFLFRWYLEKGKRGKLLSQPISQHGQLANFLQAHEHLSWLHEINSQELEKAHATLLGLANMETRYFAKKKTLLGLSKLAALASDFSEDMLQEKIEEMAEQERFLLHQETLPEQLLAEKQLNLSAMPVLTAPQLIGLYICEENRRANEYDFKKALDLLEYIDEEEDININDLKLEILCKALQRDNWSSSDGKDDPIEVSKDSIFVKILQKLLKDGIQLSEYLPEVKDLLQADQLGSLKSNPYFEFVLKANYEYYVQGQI
UniProt Q8NB37: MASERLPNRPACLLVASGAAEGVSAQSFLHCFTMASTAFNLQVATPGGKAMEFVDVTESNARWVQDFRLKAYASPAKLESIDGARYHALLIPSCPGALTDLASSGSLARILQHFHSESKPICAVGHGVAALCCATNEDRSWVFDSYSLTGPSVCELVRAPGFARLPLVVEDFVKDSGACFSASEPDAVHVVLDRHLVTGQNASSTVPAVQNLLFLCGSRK

compound: COC(=O)C#Cc1ccccc1 [methyl 3-phenylpropiolate]; experiment: log2 ratio of iodoacetamide-alkyne labeling of the cysteine site, DMSO over compound (competition); higher = stronger covalent engagement of the cysteine by the compound, active = 1 or more; settings: 500 µM; treatment time 1 h; system: HEK293T cell lysate
How it was run: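 HEK293T lysate at 2 mg/mL was treated with vehicle or electrophile (500 µM) for 1 h at ambient temperature, then labelled with iodoacetamide alkyne (1 h), clicked to sCIP-TMT reagents, pooled, digested with trypsin overnight at 37 °C, enriched on streptavidin and eluted with acid. Peptides were analysed by Orbitrap Eclipse LC-MS/MS with FAIMS and quantified in FragPipe, using duplicate channels and three replicates, with cysteines quantified in only one replicate excluded. The log2 competition ratio for each cysteine is the mean control-channel reporter intensity divided by the mean compound-channel reporter intensity.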

log2 ratio of iodoacetamide-alkyne labeling, active:
FLAD1 C496 (UniProt Q8NFF5) 1.06

log2 ratio of iodoacetamide-alkyne labeling, inactive:
UniProt Q8WVV9_C103 0.263
PDCD6IP C40 (UniProt Q8WUM4) 0.812
UniProt Q8N0W3_C484 0.269
CNNM3 C376 (UniProt Q8NE01) 0.344
UniProt Q8NBU5_C359 0.41
PPIL4 C245 (UniProt Q8WUA2) 0.169
PPHLN1 C446 (UniProt Q8NEY8) 0.117
UBR7 C260 (UniProt Q8N806) 0.301
ASCC3 C208 (UniProt Q8N3C0) 0.436
IPO4 C782 (UniProt Q8TEX9) 0.597
UniProt Q8N163_C324 0.243
UniProt Q8NC60_C364 0.2
PPHLN1 C309 (UniProt Q8NEY8) 0.444
PHIP C612 (UniProt Q8WWQ0) -0.25
UniProt Q8N0X7_C405 0.452
UniProt Q8NBJ5_C203 0.366
UniProt Q8WXA9_C494 0.148
LRRC47 C224 (UniProt Q8N1G4) 0.643
NUP133 C1037 (UniProt Q8WUM0) 0.0278
STAG2 C915 (UniProt Q8N3U4) 0.419
UniProt Q8NB37_C94 0.273
GPD1L C9 (UniProt Q8N335) 0.107
ZCCHC7 C524 (UniProt Q8N3Z6) 0.124
IPO4 C459 (UniProt Q8TEX9) -0.0458
DDX51 C338 (UniProt Q8N8A6) 0.461
GPT2 C158 (UniProt Q8TD30) 0.269
TTC5 C439 (UniProt Q8N0Z6) 0.0252
PDCD6IP C231 (UniProt Q8WUM4) 0.409
SPATA5 C81 (UniProt Q8NB90) 0.128
UniProt Q8N1G2_C9 0.562
UniProt Q8N6Q8_C5 0.701
UniProt Q8WZA9_C373 0.706
LRRC47 C450 (UniProt Q8N1G4) -0.269
ARFGAP1 C351 (UniProt Q8N6T3) 0.472
RPTOR C36 (UniProt Q8N122) 0.416
UniProt Q8WYQ9_C362 0.818

Random excerpt: two records from the list, in no set order.
log2 ratio of iodoacetamide-alkyne labeling, inactive:
PDCD6IP C40 (UniProt Q8WUM4) 0.812
PHIP C612 (UniProt Q8WWQ0) -0.25
